Reference: patent publication US20190194755
Construct, isoform or probe ends are uncertain for at least one entry. For some of these results: No signal at the amounts used counts as a negative.

The chains behind the UniProt entries cited, without tags or fusion partners. Where a name states a change or a piece, a line headed by the entry shows the natural chain unless it says otherwise.
UniProt P14385: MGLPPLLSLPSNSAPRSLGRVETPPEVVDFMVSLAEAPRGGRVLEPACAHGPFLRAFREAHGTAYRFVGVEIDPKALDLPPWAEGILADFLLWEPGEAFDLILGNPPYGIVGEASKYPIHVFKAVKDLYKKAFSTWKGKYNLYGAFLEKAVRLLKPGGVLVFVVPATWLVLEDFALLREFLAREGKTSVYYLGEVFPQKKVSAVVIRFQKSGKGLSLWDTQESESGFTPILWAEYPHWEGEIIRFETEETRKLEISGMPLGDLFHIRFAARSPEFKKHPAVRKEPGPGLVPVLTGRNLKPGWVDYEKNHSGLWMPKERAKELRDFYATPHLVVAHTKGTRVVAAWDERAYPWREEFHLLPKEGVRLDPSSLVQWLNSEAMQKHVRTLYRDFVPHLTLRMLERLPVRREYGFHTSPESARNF
UniProt P15840: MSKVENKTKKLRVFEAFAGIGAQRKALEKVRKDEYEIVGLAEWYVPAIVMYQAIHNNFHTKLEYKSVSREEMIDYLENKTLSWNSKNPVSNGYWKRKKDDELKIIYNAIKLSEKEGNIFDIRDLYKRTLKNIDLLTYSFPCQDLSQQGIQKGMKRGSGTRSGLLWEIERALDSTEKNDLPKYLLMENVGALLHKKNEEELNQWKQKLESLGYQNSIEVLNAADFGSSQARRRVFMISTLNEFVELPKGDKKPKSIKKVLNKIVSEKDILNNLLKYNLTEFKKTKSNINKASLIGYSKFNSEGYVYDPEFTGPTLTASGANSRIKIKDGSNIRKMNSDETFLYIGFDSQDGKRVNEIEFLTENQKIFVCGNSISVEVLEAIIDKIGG

What was measured:
[1] = target: M.TaqI DNA adenine methyltransferase (UniProt P14385); assay: binding assay; conditions: purified recombinant protein, only the motif is given
[2] = target: M.SssI CpG methyltransferase (Q142A/N370A) (UniProt P15840); assay: binding assay; conditions: AdoYnAzide cofactor then fluorophore attachment; more label in CLL DNA; purified recombinant protein; only the motif is given
[3] = target: M.SssI CpG methyltransferase (UniProt P15840); assay: activity assay; conditions: CpG methylation; DNA protected from HpaII (data not shown); purified recombinant protein; only the motif is given

TCGA (double strand) [CpG-methylated D4Z4 BAC, M.TaqI site]
binding result ([1]; 5mC at CpG (M.SssI pre-methylated), no label when CpG in TCGA methylated): no binding

CG (double strand) [human PBMC genomic DNA, unmethylated CpG]
binding result [2]: binds

CG (double strand) [D4Z4 BAC CH16-291A23, CpG sites]
activity on this sequence [3]: active

TCGA (double strand) [unmethylated D4Z4 BAC CH16-291A23, M.TaqI site]
binding result ([1]; TAMRA transfer from AdoYnTAMRA, 10 mM Mg, 60 C, labels at expected sites): binds
